Experimental data: the supplement of paper PMC10849652
Some of the results follow.

Chains of the proteins cited; added tags and fusions are not shown. Lines headed by an entry give the natural chain unless they say otherwise; changes in a name come on top.
UniProt Q8NCW5: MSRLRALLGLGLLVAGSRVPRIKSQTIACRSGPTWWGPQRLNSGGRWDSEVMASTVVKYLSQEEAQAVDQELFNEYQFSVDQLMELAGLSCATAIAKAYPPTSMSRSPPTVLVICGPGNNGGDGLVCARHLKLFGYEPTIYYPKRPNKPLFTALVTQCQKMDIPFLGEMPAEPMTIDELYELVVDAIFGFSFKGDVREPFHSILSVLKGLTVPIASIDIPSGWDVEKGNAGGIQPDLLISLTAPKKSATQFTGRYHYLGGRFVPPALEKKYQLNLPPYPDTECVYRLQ
UniProt Q9P0J0, whole entry, looked up: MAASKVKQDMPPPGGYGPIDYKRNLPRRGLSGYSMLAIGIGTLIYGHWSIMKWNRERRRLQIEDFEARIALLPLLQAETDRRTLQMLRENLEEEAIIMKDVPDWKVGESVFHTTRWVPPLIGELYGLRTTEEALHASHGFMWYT
UniProt Q9UI09, whole entry, looked up: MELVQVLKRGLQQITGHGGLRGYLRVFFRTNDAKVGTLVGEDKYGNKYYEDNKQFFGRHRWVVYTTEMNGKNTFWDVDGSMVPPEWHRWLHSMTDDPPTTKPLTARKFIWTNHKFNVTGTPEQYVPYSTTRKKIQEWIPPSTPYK
UniProt O75251, whole entry, looked up: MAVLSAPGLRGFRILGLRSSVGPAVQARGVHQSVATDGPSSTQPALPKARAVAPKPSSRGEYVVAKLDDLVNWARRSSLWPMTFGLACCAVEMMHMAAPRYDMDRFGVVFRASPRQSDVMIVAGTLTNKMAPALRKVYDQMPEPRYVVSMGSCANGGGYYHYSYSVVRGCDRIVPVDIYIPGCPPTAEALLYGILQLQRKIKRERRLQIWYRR
UniProt Q6XQN6: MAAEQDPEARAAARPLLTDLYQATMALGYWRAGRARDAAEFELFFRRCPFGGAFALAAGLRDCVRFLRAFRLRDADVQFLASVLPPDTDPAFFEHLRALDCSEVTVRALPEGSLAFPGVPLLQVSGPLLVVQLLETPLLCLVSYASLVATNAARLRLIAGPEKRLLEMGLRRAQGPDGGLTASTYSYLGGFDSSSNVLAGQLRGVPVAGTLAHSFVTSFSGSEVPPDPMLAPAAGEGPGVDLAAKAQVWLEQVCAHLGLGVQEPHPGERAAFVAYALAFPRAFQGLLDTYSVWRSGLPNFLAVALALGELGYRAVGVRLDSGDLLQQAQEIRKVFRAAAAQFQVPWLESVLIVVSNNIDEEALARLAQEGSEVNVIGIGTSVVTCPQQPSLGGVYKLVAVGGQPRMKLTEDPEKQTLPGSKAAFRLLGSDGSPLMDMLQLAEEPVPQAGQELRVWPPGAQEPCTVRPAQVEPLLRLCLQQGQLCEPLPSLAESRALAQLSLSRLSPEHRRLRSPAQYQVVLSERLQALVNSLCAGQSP
UniProt Q9UK23: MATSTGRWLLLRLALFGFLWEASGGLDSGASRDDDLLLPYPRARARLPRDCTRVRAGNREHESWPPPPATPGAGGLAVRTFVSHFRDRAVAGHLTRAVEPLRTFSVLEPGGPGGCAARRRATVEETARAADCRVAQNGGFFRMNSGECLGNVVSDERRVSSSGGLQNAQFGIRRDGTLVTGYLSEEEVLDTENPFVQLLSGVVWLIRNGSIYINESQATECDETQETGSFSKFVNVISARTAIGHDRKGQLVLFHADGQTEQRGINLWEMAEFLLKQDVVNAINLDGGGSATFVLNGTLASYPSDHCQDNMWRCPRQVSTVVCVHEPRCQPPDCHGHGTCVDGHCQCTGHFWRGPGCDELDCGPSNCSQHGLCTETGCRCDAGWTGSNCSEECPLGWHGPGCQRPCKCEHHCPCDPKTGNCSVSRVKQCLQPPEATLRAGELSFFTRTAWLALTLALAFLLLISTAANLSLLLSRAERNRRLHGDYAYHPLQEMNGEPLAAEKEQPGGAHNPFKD
UniProt O43678, whole entry, looked up: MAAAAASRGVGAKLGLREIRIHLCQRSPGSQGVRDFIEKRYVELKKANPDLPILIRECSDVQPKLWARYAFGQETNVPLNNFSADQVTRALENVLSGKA
UniProt Q330K2: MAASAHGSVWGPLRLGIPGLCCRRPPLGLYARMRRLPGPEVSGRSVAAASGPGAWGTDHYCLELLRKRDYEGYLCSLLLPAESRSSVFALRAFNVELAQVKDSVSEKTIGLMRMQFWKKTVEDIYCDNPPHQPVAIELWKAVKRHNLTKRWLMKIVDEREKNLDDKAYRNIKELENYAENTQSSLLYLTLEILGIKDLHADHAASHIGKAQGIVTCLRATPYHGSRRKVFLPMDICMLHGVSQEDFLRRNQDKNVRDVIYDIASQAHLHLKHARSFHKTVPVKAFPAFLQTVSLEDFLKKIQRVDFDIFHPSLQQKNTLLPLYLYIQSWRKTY
UniProt Q9NR45: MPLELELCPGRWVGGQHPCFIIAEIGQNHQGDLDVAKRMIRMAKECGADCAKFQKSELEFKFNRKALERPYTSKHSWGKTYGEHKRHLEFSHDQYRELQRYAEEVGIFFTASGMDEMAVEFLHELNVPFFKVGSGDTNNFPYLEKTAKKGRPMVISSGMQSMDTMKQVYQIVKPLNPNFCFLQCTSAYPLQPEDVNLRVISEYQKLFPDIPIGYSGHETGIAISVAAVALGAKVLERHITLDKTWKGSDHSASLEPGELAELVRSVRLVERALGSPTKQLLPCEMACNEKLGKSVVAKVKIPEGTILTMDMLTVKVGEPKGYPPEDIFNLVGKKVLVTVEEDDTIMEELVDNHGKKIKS
UniProt O95182, whole entry, looked up: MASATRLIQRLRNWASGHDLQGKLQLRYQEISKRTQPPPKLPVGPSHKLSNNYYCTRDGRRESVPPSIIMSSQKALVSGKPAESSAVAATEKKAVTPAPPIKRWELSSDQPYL
UniProt O75438, whole entry, looked up: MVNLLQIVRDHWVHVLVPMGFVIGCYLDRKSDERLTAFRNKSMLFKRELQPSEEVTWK
UniProt P46934: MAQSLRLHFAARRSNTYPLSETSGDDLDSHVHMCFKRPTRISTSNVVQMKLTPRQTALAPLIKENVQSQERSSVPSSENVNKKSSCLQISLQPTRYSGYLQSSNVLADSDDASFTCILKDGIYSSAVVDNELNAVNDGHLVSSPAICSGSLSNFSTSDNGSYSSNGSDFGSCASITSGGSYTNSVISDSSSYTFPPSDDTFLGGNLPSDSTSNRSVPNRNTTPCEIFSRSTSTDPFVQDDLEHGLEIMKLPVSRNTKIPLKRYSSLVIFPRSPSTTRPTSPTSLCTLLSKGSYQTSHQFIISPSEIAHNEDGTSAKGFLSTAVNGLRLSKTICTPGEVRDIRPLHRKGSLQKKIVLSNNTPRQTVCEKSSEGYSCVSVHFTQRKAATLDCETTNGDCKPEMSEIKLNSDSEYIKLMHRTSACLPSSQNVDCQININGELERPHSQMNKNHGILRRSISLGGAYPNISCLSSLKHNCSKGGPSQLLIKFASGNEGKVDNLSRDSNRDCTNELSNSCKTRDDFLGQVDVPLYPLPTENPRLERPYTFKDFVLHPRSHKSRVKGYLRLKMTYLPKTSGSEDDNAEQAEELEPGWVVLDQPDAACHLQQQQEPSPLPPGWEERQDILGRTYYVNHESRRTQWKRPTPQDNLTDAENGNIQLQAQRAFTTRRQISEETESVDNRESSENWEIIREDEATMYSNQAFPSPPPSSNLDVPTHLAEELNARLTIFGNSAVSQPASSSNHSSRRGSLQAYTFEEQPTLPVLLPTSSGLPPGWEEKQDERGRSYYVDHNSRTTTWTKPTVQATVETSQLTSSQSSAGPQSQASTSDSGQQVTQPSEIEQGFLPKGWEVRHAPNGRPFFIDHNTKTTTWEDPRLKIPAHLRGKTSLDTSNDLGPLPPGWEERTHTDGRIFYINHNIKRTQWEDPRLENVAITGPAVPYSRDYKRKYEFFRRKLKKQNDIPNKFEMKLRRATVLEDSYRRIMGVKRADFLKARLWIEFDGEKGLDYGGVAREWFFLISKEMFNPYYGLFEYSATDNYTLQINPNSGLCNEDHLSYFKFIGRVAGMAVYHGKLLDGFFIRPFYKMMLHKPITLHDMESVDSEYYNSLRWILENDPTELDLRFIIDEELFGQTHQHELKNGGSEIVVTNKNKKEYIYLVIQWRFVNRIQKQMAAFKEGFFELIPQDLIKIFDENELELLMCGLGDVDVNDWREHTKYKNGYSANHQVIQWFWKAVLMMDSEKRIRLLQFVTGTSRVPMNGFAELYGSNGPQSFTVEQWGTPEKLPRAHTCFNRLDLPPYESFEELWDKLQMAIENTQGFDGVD
UniProt Q15003, whole entry, looked up: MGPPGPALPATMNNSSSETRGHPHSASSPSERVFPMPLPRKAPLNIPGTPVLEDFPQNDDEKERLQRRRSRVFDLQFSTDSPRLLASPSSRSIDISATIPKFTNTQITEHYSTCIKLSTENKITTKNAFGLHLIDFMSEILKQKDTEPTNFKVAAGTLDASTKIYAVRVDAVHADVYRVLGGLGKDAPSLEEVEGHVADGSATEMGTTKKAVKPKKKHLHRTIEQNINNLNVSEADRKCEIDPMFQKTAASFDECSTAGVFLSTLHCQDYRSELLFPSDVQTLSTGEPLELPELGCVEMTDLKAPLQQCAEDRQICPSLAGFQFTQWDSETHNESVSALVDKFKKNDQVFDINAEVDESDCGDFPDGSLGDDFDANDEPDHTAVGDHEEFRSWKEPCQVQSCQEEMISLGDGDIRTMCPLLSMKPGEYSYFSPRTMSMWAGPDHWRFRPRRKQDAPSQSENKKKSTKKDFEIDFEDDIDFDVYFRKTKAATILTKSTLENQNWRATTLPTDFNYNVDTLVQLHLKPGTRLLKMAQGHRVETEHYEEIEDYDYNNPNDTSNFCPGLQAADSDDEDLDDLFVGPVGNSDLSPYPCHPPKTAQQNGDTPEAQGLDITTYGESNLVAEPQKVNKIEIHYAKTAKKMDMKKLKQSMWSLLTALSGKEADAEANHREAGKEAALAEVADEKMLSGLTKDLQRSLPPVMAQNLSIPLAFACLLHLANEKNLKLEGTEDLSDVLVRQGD
UniProt Q9Y6Q9, whole entry, looked up: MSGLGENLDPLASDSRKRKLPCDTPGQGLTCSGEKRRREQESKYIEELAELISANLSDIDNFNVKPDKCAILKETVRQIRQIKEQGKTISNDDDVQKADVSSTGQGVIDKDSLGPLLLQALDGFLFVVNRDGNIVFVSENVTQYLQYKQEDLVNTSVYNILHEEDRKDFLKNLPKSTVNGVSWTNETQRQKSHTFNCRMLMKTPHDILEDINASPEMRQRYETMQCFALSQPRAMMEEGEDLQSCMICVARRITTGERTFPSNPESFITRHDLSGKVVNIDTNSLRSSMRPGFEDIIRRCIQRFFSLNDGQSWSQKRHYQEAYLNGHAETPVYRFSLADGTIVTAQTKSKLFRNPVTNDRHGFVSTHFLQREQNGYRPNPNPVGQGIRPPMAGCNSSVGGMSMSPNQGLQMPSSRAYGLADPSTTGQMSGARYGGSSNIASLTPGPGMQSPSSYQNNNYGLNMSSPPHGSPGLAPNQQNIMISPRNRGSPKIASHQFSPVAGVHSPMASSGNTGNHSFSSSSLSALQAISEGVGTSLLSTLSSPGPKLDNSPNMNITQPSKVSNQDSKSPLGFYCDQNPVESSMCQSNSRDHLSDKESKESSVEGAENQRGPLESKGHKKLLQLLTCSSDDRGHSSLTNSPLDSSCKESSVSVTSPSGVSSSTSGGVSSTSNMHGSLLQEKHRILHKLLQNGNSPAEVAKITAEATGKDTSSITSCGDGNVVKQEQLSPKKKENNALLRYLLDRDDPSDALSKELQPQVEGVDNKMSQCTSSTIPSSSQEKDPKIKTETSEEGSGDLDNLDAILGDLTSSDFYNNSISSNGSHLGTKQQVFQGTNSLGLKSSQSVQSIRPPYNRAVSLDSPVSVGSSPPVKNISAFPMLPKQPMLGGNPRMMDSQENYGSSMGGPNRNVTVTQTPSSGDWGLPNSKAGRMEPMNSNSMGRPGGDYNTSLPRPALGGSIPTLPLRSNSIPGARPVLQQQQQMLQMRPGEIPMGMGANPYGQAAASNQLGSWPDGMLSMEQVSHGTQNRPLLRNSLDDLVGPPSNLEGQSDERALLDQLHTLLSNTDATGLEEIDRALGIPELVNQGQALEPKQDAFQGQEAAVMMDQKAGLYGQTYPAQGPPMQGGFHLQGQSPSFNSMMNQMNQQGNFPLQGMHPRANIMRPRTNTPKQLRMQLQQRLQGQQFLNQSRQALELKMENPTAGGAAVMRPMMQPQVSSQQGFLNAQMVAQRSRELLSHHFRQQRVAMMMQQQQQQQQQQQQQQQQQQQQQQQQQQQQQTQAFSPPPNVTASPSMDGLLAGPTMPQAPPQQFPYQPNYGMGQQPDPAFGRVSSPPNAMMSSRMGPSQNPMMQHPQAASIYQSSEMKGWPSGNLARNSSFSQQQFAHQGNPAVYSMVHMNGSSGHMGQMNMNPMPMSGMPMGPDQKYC

Key:
Test in all cases: log2 fold change, soluble protein after heating vs DMSO (PISA); higher = thermal stabilisation; K562 cells, 10 uM, 30 min; active = over 0.2 and 3.5 SD of the protein, either way, in both replicates (recomputed)
[1] = compound: COC1=CC=C(C=C1)CN2C=CC3=C2C=C(C=C3)C(=O)NO
Summary of the method: (§1)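 Soluble protein was quantified by TMTpro 16plex LC-MS/MS after channel sums were equalised. It was obtained as the supernatant after 21,000xg for 90 min from pooled aliquots of K562 cells (2×10^6 cells/mL, 10 μM compound, 30 min) heated for 3 min across 48°C-58°C and extracted in PBS with 0.5% NP-40 at 4°C. Thermal stability values are relative to control samples and come from duplicates. They are given as log2 fold changes.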

[2] = compound: CON(C)C(=O)N1N=C(c2cc(F)ccc2F)S[C@@]1(CCCN)c1ccccc1 [filanesib]
Summary of the method: as §1

[3] = compound: CO[C@H]1C[C@@H]2CC[C@@H](C)[C@@](O)(O2)C(=O)C(=O)N2CCCC[C@H]2C(=O)O[C@H]([C@H](C)C[C@@H]2CC[C@H](n3cnnn3)[C@H](OC)C2)CC(=O)[C@H](C)/C=C(\C)[C@@H](O)[C@@H](OC)C(=O)[C@H](C)C[C@H](C)/C=C/C=C/C=C/1C [zotarolimus]
Summary of the method: as §1

[4] = compound: COc1cc(C(=O)O)ccc1NC(=O)[C@@H]1N[C@@H](CC(C)(C)C)[C@](C#N)(c2ccc(Cl)cc2F)[C@H]1c1cccc(Cl)c1F [idasanutlin]
Summary of the method: as §1

[5] = compound: COc1cc(Nc2ncc3c(n2)-c2ccc(Cl)cc2C(c2c(F)cccc2OC)=NC3)ccc1C(=O)O [alisertib]
Summary of the method: as §1

[6] = compound: COc1cc2nc(-c3cc(F)ccc3O)nc(N[C@@H]3CNC[C@H]3C(C)(C)O)c2cc1OC
Summary of the method: as §1

[7] = compound: COc1cc2ncnc(Nc3ccc(F)c(Cl)c3)c2cc1OCCCN1CCOCC1 [gefitinib]
Summary of the method: as §1

[8] = compound: COc1cccc2cc(-c3nc([C@H]4CC[C@H](C(=O)O)CC4)n4ncnc(N)c34)[nH]c12
Summary of the method: as §1

[9] = compound: CS(=O)(=O)CCNCc1ccc(-c2ccc3ncnc(Nc4ccc(OCc5cccc(F)c5)c(Cl)c4)c3c2)o1 [lapatinib]
Summary of the method: as §1

[10] = compound: CS(=O)(=O)N1CCN(Cc2cc3nc(-c4cccc5[nH]ncc45)nc(N4CCOCC4)c3s2)CC1 [pictilisib]
Summary of the method: as §1

[11] = compound: CS(=O)(=O)c1ccc(-c2cnc(N)c(C(=O)Nc3ccccc3)n2)cc1
Summary of the method: as §1

[12] = compound: C[C@@H](Oc1cc(-c2cnn(C3CCNCC3)c2)cnc1N)c1c(Cl)ccc(F)c1Cl [crizotinib]
Summary of the method: as §1

[13] = compound: C[C@@H]1COCCN1C2=NC(=NC(=C2)C3(CC3)S(=O)(=O)C)C4=C5C=CNC5=CC=C4
Summary of the method: as §1

[14] = compound: C[C@H](C1=CC=C(C=C1)C(=O)NC2=C3C=CNC3=NC=C2)N
Summary of the method: as §1

[15] = compound: C[C@H](Nc1ncnc2nc[nH]c12)c1cc2cccc(Cl)c2c(=O)n1-c1ccccc1 [duvelisib]
Summary of the method: as §1

[16] = compound: Cc1cc(Nc2cc(CN3CCOCC3)c3nc(C)c(Cc4ccc(Cl)cc4F)n3n2)n[nH]1 [gandotinib]
Summary of the method: as §1

[17] = compound: Cc1cc(Nc2cc(N3CCN(C)CC3)nc(Sc3ccc(NC(=O)C4CC4)cc3)n2)n[nH]1 [tozasertib]
Summary of the method: as §1

[18] = compound: Cc1cc(SCc2sc(-c3ccc(C(F)(F)F)cc3)nc2C)ccc1OCC(=O)O
Summary of the method: as §1

[19] = compound: Cc1ccc(-n2nc(C(C)(C)C)cc2NC(=O)Nc2ccc(OCCN3CCOCC3)c3ccccc23)cc1 [doramapimod]
Summary of the method: as §1

[20] = compound: Cc1ccc(C(=O)N(CCCN)[C@@H](c2nc3cc(Cl)ccc3c(=O)n2Cc2ccccc2)C(C)C)cc1 [ispinesib]
Summary of the method: as §1

Measured: log2 fold change

NAXE (UniProt Q8NCW5)
inactive: [1] 0.047 | [2] -0.027 | [3] 0.057 | [4] -0.038 | [5] -0.028 | [6] 0.017 | [7] 0.003 | [8] 0.041 | [9] -0.015 | [10] 0.026 | [11] 0.012 | [12] 0.094 | [13] 0.136 | [14] -0.099 | [15] 0.036 | [16] 0.113 | [17] 0.021 | [18] -0.029 | [19] -0.017 | [20] 0.062

NDUFA13 (UniProt Q9P0J0)
inactive: [1] 0.043 | [2] -0.092 | [3] 0.021 | [4] -0.019 | [5] -0.026 | [6] -0.088 | [7] 0 | [8] 0.043 | [9] 0.036 | [10] 0.044 | [11] 0 | [12] 0.027 | [13] 0.085 | [14] -0.162 | [15] 0.042 | [16] -0.048 | [17] 0.018 | [18] 0.016 | [19] 0.049 | [20] -0.04

NDUFA12 (UniProt Q9UI09)
active: [20] -0.385
inactive: [1] -0.011 | [2] -0.071 | [3] 0.002 | [4] -0.213 | [5] 0.019 | [6] -0.167 | [7] -0.086 | [8] 0.056 | [9] -0.04 | [10] 0.023 | [11] 0.107 | [12] -0.033 | [13] 0.025 | [14] 0.015 | [16] -0.206 | [18] 0.115 | [19] 0.03

NDUFS7 (UniProt O75251)
inactive: [1] -0.009 | [2] -0.108 | [3] -0.036 | [4] -0.112 | [5] 0.039 | [6] -0.106 | [7] -0.029 | [8] 0.057 | [9] 0.015 | [10] 0.047 | [11] 0.013 | [12] -0.109 | [13] 0.029 | [14] -0.019 | [16] -0.108 | [18] 0.013 | [19] -0.02 | [20] -0.114

NAPRT (UniProt Q6XQN6)
inactive: [1] -0.034 | [2] -0.018 | [3] 0.02 | [4] -0.016 | [5] -0.042 | [6] 0.076 | [7] 0.008 | [8] 0.065 | [9] -0.014 | [10] 0.11 | [11] -0.017 | [12] 0.031 | [13] 0.026 | [14] -0.073 | [15] 0.028 | [16] 0.004 | [17] -0.024 | [18] -0.032 | [19] -0.03 | [20] 0.055

NAGPA (UniProt Q9UK23)
inactive: [1] -0.025 | [2] -0.046 | [3] -0.099 | [4] 0.054 | [5] -0.069 | [6] -0.044 | [7] 0.001 | [8] 0.248 | [9] 0.139 | [10] 0.134 | [11] 0.017 | [12] 0.178 | [13] -0.078 | [14] -0.014 | [16] 0.024 | [18] -0.079 | [19] 0.072

NDUFA2 (UniProt O43678)
inactive: [1] -0.076 | [2] -0.015 | [3] 0.081 | [4] -0.177 | [5] -0.064 | [6] 0.043 | [7] -0.018 | [8] -0.038 | [9] 0.001 | [10] -0.102 | [11] 0.018 | [12] 0.078 | [13] 0.2 | [14] -0.035 | [15] 0.065 | [16] 0.036 | [17] 0.01 | [18] 0.02 | [19] -0.006 | [20] -0.126

NDUFB10 (UniProt O96000)
inactive: [1] 0.044 | [2] -0.025 | [3] 0.006 | [4] -0.035 | [5] -0.021 | [6] -0.047 | [7] 0 | [8] 0.05 | [9] -0.035 | [10] 0.082 | [11] 0.024 | [12] -0.025 | [13] 0.012 | [14] 0.027 | [16] -0.029 | [18] 0.024 | [19] 0.003 | [20] -0.073

Fetched one by one from the list above (2):
NAPRT (UniProt Q6XQN6)
inactive: [1] -0.034 | [2] -0.018 | [3] 0.02 | [4] -0.016 | [5] -0.042 | [6] 0.076 | [7] 0.008 | [8] 0.065 | [9] -0.014 | [10] 0.11 | [11] -0.017 | [12] 0.031 | [13] 0.026 | [14] -0.073 | [15] 0.028 | [16] 0.004 | [17] -0.024 | [18] -0.032 | [19] -0.03 | [20] 0.055

NDUFS7 (UniProt O75251)
inactive: [1] -0.009 | [2] -0.108 | [3] -0.036 | [4] -0.112 | [5] 0.039 | [6] -0.106 | [7] -0.029 | [8] 0.057 | [9] 0.015 | [10] 0.047 | [11] 0.013 | [12] -0.109 | [13] 0.029 | [14] -0.019 | [16] -0.108 | [18] 0.013 | [19] -0.02 | [20] -0.114

(list continues)

NDUFAF6 (UniProt Q330K2)
inactive: [1] 0.183 | [2] -0.177 | [3] -0.006 | [4] 0.03 | [5] -0.199 | [6] -0.165 | [7] -0.018 | [8] 0.061 | [9] -0.007 | [10] 0 | [11] -0.052 | [12] -0.197 | [13] 0.182 | [14] -0.025 | [16] -0.167 | [18] 0.027 | [19] -0.065 | [20] -0.273

NANS (UniProt Q9NR45)
inactive: [1] -0.11 | [2] -0.115 | [3] 0.017 | [4] -0.045 | [5] -0.008 | [6] -0.017 | [7] -0.057 | [8] -0.017 | [9] -0.005 | [10] -0.018 | [11] -0.074 | [12] 0.026 | [13] 0.052 | [14] -0.098 | [16] -0.03 | [18] 0.001 | [19] -0.006 | [20] 0.074

NDUFA7 (UniProt O95182)
inactive: [1] 0.003 | [2] -0.072 | [3] 0.005 | [4] -0.197 | [5] -0.042 | [6] -0.147 | [7] -0.178 | [8] 0.013 | [9] -0.002 | [10] -0.007 | [11] -0.004 | [12] -0.103 | [13] 0.02 | [14] 0.039 | [16] -0.12 | [18] 0.07 | [19] -0.041 | [20] -0.118

NDUFB1 (UniProt O75438)
inactive: [1] 0.031 | [2] -0.029 | [3] -0.055 | [4] 0.029 | [5] -0.062 | [6] -0.08 | [7] 0.083 | [8] 0.076 | [9] -0.028 | [10] -0.196 | [11] 0.06 | [12] 0.019 | [13] 0.105 | [14] 0.044 | [16] -0.27 | [19] -0.044

NEDD4 isoform 4 (UniProt P46934)
inactive: [1] 0.036 | [2] -0.02 | [3] 0.064 | [4] -0.042 | [5] 0.053 | [6] 0.027 | [7] 0.074 | [8] -0.029 | [9] 0.028 | [10] -0.017 | [11] -0.05 | [12] -0.081 | [13] 0.095 | [14] -0.039 | [16] -0.061 | [18] -0.009 | [19] -0.042 | [20] -0.022

NCAPH (UniProt Q15003)
inactive: [1] -0.03 | [2] 0.018 | [3] 0.024 | [4] -0.046 | [5] 0.016 | [6] 0.092 | [7] 0 | [8] -0.065 | [9] -0.021 | [10] 0.062 | [11] 0.049 | [12] 0.013 | [13] -0.017 | [14] 0.072 | [16] -0.11 | [18] 0.081 | [19] 0.006 | [20] -0.064

NA, A0A2R8Y3M9
inactive: [1] -0.086 | [2] 0.079 | [3] -0.419 | [4] 0.279 | [6] -0.123 | [7] -0.168 | [9] -0.037 | [10] -0.35 | [11] -0.084 | [12] 0.013 | [14] -0.011 | [16] -0.099 | [18] -0.107 | [19] -0.008 | [20] -0.125

NCOA3 (UniProt Q9Y6Q9)
inactive: [1] 0.138 | [2] 0.091 | [3] 0.033 | [6] -0.02 | [7] 0.188 | [9] 0.09 | [10] 0.045 | [11] -0.008 | [12] -0.114 | [13] -0.3 | [14] -0.102 | [16] -0.13 | [17] 0.156 | [19] -0.08 | [20] 0.024
